According to paper PMC9239148:
Results are given in words; binding and its absence hold for the method and conditions named. Some entries that bind do so weakly or less than the wild type.

Amino acid sequences for entries named in this document (tags omitted). Residues count along the entry.
UniProt P05121, residues 24-402: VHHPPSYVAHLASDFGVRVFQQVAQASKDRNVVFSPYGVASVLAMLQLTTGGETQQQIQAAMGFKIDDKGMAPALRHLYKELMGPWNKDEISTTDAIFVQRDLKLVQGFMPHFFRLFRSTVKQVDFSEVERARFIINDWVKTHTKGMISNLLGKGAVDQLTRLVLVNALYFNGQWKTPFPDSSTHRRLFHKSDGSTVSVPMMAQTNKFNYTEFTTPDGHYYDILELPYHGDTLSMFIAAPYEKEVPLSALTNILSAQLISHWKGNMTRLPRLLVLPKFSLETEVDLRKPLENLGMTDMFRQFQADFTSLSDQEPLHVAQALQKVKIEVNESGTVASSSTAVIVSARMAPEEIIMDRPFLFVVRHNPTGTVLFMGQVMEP
UniProt P01009, residues 25-418: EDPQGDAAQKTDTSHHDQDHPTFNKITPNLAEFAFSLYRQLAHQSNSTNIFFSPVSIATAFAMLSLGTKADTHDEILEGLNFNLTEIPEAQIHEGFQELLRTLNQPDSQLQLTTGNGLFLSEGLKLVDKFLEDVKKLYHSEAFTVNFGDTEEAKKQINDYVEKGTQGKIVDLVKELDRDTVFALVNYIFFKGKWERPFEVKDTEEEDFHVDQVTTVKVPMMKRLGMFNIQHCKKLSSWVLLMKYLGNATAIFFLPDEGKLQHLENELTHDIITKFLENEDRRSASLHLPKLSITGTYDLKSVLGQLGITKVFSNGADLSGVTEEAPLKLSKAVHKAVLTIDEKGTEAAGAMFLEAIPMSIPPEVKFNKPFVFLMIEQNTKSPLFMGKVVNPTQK
UniProt P01008, residues 33-464: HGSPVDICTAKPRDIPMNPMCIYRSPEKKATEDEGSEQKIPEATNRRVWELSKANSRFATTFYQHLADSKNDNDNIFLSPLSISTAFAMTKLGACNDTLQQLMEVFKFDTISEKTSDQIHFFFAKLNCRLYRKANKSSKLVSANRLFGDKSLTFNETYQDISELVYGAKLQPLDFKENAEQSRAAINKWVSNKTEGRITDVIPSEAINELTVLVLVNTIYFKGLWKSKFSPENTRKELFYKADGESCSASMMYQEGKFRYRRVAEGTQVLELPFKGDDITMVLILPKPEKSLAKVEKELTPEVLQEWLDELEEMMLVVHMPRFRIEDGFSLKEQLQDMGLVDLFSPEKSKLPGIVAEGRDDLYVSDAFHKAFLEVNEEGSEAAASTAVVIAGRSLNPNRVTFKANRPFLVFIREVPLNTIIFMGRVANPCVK
UniProt P00750, residues 36-562: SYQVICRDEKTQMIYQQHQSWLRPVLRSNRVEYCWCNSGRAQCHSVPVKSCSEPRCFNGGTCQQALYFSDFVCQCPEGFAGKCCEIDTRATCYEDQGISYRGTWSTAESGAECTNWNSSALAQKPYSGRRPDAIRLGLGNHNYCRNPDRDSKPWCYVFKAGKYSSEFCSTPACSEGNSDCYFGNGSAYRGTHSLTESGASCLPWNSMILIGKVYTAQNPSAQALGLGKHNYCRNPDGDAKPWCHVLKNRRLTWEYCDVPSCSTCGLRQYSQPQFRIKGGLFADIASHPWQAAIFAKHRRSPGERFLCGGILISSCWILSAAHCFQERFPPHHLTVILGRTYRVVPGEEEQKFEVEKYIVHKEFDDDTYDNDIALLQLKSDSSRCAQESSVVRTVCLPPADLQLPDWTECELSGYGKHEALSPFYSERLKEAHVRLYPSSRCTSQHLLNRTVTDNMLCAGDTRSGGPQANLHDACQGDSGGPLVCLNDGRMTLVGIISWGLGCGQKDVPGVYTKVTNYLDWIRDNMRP
UniProt O15393, residues 256-492: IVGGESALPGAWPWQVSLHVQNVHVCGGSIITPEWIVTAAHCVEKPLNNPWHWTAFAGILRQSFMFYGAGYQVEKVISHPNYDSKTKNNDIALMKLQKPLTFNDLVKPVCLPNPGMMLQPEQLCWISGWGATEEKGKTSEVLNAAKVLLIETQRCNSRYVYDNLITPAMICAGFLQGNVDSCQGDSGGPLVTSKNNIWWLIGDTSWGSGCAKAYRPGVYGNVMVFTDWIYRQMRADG

Assays:
Test in all cases: SPR; Serpin A1, C1 and E1 amine-coupled to a CM5 chip at pH 4 (5,200, 2,700 and 3,300 RU); analyte TMPRSS2 (125 nM to 7.81 nM) or tPA (1,000 nM to 1.95 nM) in 2-fold dilutions; 120 s association, 120 s dissociation, 30 uL/min; 25°C; 10 mM phosphate buffer pH 7.4, 140 mM NaCl, 0.27 mM KCl; Biacore T-200; both purified
[1] = target: Recombinant SERPINE1 protein (plasminogen activator inhibitor 1) (human) (UniProt P05121)
[2] = target: Recombinant SERPINA1 protein (alpha-1 antitrypsin) (human) (UniProt P01009)
[3] = target: Recombinant SERPINC1 protein (antithrombin III) (human) (UniProt P01008)

binding [1]	binding [2]	binding [3]	Substance
binds			Tissue plasminogen activator (from UniProt P00750 36-562) (enzyme)
binds	binds	binds	Active recombinant TMPRSS2 (transmembrane serine protease 2) (from UniProt O15393 256-492) (enzyme)
